Measured values published in article PMC6472371.
These are yes or no findings as the source states them, for the method shown. In cells and extracts the contact can be indirect. These calls come from enrichment with a bait or labelling near it, and not all partners need be listed.

By UniProt entry, the sequences of proteins in these tests, tags left out.
UniProt Q9H8M2: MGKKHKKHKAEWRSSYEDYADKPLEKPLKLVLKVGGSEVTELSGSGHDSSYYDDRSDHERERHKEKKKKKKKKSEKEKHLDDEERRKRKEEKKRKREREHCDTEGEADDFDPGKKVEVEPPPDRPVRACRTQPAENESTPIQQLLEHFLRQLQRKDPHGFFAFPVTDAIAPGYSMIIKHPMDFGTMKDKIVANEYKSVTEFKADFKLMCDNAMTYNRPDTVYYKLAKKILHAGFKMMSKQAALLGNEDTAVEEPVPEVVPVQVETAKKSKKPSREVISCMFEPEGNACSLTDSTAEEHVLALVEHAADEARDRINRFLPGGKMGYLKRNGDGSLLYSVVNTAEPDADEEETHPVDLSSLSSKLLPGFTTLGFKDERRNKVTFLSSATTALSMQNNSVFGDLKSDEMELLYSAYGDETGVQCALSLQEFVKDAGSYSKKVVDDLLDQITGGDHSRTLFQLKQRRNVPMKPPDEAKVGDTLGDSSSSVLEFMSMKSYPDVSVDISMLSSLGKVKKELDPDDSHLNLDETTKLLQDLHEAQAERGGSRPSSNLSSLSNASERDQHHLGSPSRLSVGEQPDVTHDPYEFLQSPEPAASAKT
UniProt Q9NZM4: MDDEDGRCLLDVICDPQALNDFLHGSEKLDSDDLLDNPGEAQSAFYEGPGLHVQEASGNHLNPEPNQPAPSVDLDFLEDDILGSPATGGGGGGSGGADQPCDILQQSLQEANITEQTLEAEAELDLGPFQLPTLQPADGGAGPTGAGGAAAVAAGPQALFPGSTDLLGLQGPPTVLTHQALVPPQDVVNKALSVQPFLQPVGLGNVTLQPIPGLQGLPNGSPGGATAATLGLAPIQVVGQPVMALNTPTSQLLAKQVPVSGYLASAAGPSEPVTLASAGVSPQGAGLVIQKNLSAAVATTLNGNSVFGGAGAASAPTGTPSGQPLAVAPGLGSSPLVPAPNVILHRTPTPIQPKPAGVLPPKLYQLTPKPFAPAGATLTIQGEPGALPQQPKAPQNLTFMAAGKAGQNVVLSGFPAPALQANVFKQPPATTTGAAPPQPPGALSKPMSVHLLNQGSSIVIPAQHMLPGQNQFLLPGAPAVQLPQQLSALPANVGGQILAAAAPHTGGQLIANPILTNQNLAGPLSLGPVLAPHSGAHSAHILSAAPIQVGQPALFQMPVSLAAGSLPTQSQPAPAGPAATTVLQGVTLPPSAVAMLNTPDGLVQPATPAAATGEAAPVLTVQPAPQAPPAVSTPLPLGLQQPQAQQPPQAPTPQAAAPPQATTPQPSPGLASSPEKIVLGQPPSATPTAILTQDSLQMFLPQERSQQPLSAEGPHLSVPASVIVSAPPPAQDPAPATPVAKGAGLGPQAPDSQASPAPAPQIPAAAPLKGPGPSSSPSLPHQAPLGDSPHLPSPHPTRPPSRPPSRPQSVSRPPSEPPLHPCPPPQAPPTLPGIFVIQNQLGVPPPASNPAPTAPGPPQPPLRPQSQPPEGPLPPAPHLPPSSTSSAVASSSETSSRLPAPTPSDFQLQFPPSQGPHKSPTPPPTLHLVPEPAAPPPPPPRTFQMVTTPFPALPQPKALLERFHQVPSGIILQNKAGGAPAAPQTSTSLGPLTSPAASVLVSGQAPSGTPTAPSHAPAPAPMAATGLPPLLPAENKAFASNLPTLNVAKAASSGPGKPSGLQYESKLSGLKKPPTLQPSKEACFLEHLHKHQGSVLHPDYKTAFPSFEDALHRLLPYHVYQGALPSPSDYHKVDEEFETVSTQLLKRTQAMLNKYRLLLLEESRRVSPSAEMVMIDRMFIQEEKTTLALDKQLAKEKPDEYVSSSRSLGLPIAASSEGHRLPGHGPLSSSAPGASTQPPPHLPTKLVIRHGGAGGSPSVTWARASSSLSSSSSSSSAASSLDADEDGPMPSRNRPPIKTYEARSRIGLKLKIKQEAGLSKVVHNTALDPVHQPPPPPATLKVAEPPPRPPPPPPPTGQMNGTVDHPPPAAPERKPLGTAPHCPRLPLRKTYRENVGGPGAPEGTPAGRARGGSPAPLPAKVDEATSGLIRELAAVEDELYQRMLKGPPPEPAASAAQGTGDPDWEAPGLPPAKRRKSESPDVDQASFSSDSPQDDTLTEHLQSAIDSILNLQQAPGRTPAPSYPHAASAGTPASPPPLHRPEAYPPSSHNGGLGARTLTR
UniProt Q6AI39: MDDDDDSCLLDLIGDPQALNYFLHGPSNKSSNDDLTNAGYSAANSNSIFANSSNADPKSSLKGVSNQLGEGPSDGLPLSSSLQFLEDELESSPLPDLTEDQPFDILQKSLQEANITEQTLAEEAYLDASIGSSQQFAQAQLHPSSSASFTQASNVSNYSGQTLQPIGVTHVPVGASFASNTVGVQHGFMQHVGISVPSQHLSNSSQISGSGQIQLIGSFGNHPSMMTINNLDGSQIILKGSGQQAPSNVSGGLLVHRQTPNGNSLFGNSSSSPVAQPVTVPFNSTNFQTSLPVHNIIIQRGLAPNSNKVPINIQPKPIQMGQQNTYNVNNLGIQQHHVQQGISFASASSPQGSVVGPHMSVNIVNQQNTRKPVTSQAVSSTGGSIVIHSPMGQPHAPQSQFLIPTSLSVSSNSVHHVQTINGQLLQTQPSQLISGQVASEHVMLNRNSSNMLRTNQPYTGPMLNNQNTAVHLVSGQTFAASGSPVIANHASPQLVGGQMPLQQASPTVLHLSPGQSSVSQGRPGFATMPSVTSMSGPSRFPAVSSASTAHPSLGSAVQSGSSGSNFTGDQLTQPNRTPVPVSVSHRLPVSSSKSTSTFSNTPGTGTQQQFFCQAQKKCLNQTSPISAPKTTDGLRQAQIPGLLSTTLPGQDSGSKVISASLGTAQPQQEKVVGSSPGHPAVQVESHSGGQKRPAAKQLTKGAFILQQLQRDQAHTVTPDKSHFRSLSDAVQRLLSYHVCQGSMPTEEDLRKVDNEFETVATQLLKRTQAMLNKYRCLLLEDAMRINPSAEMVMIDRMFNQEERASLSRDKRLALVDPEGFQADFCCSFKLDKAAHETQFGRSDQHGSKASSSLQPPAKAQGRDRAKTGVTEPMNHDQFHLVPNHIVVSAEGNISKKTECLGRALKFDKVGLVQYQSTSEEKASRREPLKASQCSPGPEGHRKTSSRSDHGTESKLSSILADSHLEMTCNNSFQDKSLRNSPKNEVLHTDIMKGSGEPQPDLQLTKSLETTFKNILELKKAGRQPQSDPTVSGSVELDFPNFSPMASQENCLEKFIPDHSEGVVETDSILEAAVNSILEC
UniProt P51532: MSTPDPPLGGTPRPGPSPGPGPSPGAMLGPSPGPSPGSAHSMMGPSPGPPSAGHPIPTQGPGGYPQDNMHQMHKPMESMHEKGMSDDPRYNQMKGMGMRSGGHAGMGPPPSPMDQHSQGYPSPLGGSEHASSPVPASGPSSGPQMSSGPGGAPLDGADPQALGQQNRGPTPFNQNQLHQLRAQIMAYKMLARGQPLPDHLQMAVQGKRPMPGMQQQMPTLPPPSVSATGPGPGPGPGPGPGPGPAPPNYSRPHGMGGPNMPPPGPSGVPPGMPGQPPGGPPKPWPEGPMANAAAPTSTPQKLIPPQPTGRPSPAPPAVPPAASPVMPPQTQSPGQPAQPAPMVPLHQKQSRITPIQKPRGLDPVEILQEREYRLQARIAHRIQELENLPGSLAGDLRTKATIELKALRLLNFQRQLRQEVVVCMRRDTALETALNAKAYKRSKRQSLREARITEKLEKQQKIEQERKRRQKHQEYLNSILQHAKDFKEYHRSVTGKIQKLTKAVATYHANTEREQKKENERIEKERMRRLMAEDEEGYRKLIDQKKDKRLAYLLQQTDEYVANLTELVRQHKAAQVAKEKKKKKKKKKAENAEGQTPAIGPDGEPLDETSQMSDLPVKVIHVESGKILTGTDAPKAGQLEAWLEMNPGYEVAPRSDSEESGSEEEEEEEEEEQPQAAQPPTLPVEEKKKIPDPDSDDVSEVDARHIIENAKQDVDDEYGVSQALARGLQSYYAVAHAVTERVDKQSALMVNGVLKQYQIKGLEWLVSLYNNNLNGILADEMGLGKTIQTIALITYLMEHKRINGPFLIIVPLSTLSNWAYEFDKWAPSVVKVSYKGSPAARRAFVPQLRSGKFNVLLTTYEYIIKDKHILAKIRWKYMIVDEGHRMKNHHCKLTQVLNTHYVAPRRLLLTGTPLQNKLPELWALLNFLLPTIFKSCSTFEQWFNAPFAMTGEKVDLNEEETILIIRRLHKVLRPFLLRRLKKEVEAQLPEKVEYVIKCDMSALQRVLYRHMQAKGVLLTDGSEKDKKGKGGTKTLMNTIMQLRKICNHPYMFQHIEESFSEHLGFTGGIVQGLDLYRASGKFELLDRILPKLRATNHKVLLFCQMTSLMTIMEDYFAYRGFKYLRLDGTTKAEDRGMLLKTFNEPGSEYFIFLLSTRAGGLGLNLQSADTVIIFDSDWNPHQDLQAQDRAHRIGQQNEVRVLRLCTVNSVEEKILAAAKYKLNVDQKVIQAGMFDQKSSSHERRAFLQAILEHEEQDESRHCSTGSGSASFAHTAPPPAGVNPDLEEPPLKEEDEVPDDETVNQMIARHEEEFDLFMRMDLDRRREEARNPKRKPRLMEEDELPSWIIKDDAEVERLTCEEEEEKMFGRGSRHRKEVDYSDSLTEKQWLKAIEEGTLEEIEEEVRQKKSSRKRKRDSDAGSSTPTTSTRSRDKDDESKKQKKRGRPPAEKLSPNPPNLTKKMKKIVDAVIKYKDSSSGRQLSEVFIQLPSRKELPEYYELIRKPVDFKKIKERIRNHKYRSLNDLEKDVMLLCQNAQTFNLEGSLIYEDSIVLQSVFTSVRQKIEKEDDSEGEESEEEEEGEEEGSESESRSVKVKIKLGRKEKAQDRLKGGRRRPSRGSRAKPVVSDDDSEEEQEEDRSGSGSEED
UniProt Q96GM5: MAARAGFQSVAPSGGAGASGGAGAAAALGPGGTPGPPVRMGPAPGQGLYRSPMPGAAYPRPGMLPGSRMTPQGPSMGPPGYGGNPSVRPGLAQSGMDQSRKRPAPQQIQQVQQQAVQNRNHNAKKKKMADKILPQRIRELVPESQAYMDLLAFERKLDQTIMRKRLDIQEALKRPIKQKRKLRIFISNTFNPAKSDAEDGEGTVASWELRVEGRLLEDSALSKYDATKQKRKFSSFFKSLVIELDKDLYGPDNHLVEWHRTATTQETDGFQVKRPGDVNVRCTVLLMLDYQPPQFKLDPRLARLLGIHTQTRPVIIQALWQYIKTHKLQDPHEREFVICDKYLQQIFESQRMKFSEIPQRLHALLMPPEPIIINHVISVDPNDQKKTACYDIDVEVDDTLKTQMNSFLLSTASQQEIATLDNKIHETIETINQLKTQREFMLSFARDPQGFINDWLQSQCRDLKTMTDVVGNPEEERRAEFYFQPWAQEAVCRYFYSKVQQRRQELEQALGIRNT
UniProt Q15532: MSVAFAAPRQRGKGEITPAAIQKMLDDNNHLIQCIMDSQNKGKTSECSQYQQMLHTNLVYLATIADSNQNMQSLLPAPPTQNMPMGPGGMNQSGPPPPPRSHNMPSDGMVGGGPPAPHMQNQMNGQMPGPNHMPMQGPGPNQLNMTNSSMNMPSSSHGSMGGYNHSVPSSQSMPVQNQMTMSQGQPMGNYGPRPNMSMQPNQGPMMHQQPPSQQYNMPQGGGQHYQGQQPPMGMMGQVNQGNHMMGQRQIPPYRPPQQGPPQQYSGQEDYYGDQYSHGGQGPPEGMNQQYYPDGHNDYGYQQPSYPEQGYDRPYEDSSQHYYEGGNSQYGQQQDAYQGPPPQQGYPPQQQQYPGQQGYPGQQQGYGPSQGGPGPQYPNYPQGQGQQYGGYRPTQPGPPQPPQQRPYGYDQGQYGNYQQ

What follows are substances tested against N-terminal green fluorescent protein (GFP)-tagged BRD9 protein (bromodomain-containing protein 9), HeLa stable line (UniProt Q9H8M2) (assay: affinity purification with mass spectrometry; label-free GFP pulldown with GFP-trap beads (Chromotek) of nuclear extracts of GFP-BRD9 HeLa against wild-type HeLa; 1 mg extract, 300 mM NaCl, 0.15% NP-40, 0.5 mM dithiothreitol, 20 mM HEPES-KOH pH 7.9, with ethidium bromide to prevent DNA-mediated interactions; LC-MS/MS).

binding, binds:
GLTSCR1 (endogenous, HeLa) (from UniProt Q9NZM4 1-1560)
GLTSCR1L (endogenous, HeLa) (from UniProt Q6AI39 1-1079)
SMARCA4 (endogenous, HeLa) (from UniProt P51532 1-1647)
SMARCD1 (endogenous, HeLa) (from UniProt Q96GM5 1-515)
SS18 (endogenous, HeLa) (from UniProt Q15532 1-418)
